According to article PMC4973239, “Crystal structure of the human Tip41 orthologue, TIPRL, reveals a novel fold and a binding site for the PP2Ac C-terminus” (Scientific Reports, 2016):
Results are given in words; binding and its absence hold for the method and conditions named. Sequences can lack the tags named with a protein.

T1: His-tagged, full length TIPRL (human), O75663
T1 chain: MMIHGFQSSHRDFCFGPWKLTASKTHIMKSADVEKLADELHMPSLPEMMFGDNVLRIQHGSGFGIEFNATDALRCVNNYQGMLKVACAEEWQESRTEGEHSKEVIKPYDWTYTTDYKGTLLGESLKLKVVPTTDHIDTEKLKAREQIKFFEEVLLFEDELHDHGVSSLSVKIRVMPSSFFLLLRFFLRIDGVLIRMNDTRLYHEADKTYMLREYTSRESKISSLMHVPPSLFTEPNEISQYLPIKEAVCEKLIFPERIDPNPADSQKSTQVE

T2: full length TIPRL, affinity tag removed (human), O75663
T2 chain: T1 chain

B1: His-tagged, full length TIPRL, O75663-1 1-272 (protein)
chain: T1 chain
B2: full length TIPRL, affinity tag removed, O75663-1 1-272 (protein)
chain: T1 chain

Key:
[1] = target: T1, His-tagged, full length TIPRL (human), …; assay: SEC; size exclusion profiles under different conditions (Fig. S1B), high concentration; HiLoad 26/60 Superdex 75 pg, Tris 20 mM pH 7.5, 100 mM NaCl, 10 mM β-mercaptoethanol; both purified; conditions: remark: other sources report otherwise
[2] = target: T2, full length TIPRL, affinity tag removed …; assay: as above; conditions: remark: other sources report otherwise

| Binder | binding [1] | binding [2] |
| --- | --- | --- |
| B1 | no binding | – |
| B2 | – | no binding |
